To fix the notation:
B1: il2ra_site2_2erj_normal_mot_HHH_b1_04481_000000056_0001_1_18_H_._HHH_b1_03298_0001_0000600014_0000001_0 (protein)
chain: SSSSSSDIEELLEELEKLIEEGNPSEFLEVLAEAAELIRERNDEELAKRLNELWREFHSSSSSSS
B2: il2ra_site2_2erj_normal_mot_HHH_b2_06411_000000092_0001_40_56_H_._HHH_b1_05737_0001_0000100003_0000001_0 (protein)
chain: SSSSDLEEVYELAVEALRLLAEGNPEEAEEVLKKAREILEEAGNDEAVRFLEELFEMFERSSSSS
B3: il2ra_site1_2b5i_normal_mot_HHH_b1_00432_000000039_0001_1_18_H_._HHH_b1_02735_0001_0000300013_0000001_0_af2pred_dldesign_0_af2pred (protein)
chain: SSSSSSDEEIEAAEDLALQALKEKDKEKRKELLEEALRLAQKGKDAKLVAQIQELLERLKSSSSS
B4: il2ra_site2_2erj_sap_24_mot_35d2dc24e2c4431f89e6f806b163ecf8_0001_af2_000000103_0001_35_49_H_._HHH_b1_00970_af2_0001_0000300014_0000001_0_0001_af2pred_0001_af2p … (protein)
chain: SSSSSDEEEIKKRVEELLEEAEKIKNIREALKVLEEADELALKIDDEELLQEVDEVLQKLSSSSS
B5: il2ra_site1_1z92_sap_21_mot_HHH_b1_06433_af2_000000071_0001_43_55_H_._1be45adfb33e20f6866665fef51ac9fc_0001_1_af2_0001_0000300007_0000001_0_0001_af2pred_0001_af … (protein)
chain: TKVSVEEAREEAGGDPEAAVEILLRIIEEQTDAPPRNAIIFLRILARKLGDPEIEEILEELQRRR
B6: il2ra_site1_1z92_sap_10_mot_ae822554cddc87a57d04fcdb10ee4bf1_0001_1_000000099_0001_1_12_H_._HHH_b2_05903_0001_0000100002_0000001_0_0001_af2pred_0001_af2pred_1 (protein)
chain: SSSSSEENTARIIVEILVKLAGLSEEQEEELERLLKELLERGVDLLEISRRLDELALKLESSSSS
B7: il2ra_site1_3nfp_sap_18_mot_HHH_b2_02028_000000257_0001_1_17_H_._HHH_b2_00444_0001_0000100001_0000001_0_0001 (protein)
chain: SSSSSRFEELLRLDRELWEARRRGDEELARELLELLKELAEENNDKILKRLLKQWEENLKSSSSS
B8: il2ra_site1_3nfp_normal_mot_ems_3hC_1630_0002_af2_000000235_0001_1_19_H_._HEEHE_3092_0001_0000100023_0000001_0 (protein)
chain: SAEKLAEFLARSLKKDAGVESVEVEVRDQRLSVTFKGNDEAVEYAARLVRFFAEQAGVPVEIETE
B9: il2ra_site2_3nfp_sap_27_mot_HHH_b1_07198_000000084_0001_1_18_H_._311205a5f7018ed2e03f51fd3ffd5b95_0001_0001_0000200033_0000001_0_0001 (protein)
chain: PVEELVREVAEILGDPRFEEVVEERLERLKKEGNEEALKYIEAALALIVRHNDPRLAQTLLELLD
B10: il2ra_site1_2b5i_normal_mot_HHH_b2_04910_000000118_0001_1_19_H_._HHH_b1_02561_af2_0001_0000500020_0000001_0_af2pred_dldesign_0_af2pred (protein)
chain: SSSSSPVGEELRRLLEEAERLKKAGKDEEAKRLLEEALRLAREANLPRAARFIELALEQLESSSS
B11: il2ra_site1_1z92_sap_17_mot_HHH_b1_05516_af2_000000202_0001_21_38_H_._HHH_b1_03395_0001_0000300017_0000001_0_0001 (protein)
chain: SSSSDKQLEYLEEQIRRALERGSKRLAQRLIEMVRRIAEDADDDEAKRVAEELQQILEELSSSSS
B12: il2ra_site1_1z92_sap_32_mot_HHH_b1_01261_af2_000000008_0001_1_19_H_._HHH_b1_04539_0001_0000800054_0000001_0_0001 (protein)
chain: DKTNIKDVLWLVKLHPPEKVLRRLEKSAERSDDPSWRRASEILEEALRRANGDPEEVERLLEELR
B13: il2ra_site2_3nfp_normal_mot_HHH_b2_07946_000000046_0001_20_36_H_._HHH_b1_00607_af2_0001_0000200042_0000001_0 (protein)
chain: SSSSSDEEEVEKLEQEIEKAREEGDEEAVRELLKRVSDLAYKLGDFELFARVADLLLELLSSSSS
B14: il2ra_site2_3nfp_normal_mot_HHH_b2_05281_000000198_0001_39_56_H_._HHH_b1_08050_af2_0001_0000600029_0000001_0 (protein)
chain: SSSSSEELEELLKRLEELLKEGDEEEFRRLLAEIVHLAFKLNDPRIFYLVAELAFEFHQRESSSS
B15: il2ra_site2_3nfp_normal_mot_HHH_b2_06150_000000217_0001_39_53_H_._HHH_b1_00332_0001_0000300020_0000001_0 (protein)
chain: SSSSDEEELEQLLEELRRLVEENDEERARRLIARITHLAFELRDSRVFYLLAELLYLLVRLSSSS
B16: il2ra_site1_2b5i_sap_15_mot_HHH_b2_04274_000000042_0001_1_19_H_._HHH_b2_02498_0001_0000200018_0000001_0_0001 (protein)
chain: SSSSSEKTRRALELFREADEADRRGNPEEAQELLEEALRVAEEGGSRALFRMIRAALEQVSSSSS
B17: il2ra_site1_3nfp_normal_mot_HHH_b1_06045_af2_000000189_0001_3_17_H_._a9b97edc58e4c613f9eb791f71029db3_0001_1_0001_0000300028_0000001_0_af2pred_0001_af2pred_1_sw … (protein)
chain: SLEEKLEELLKRDVEEAIRLVERVVRELLEEGDPQEASKVLELAIRLAAELDDPELSEALFELAR
B18: il2ra_site2_3nfp_sap_18_mot_HHH_b1_04429_af2_000000130_0001_1_18_H_._HHH_b2_06954_0001_0001000014_0000001_0_0001 (protein)
chain: PEVSTILMKLKEEDPNNELAFELFALLAEAWHRGDEELEERLKEAAELLEEGDPERAEELLERLK
B19: il2ra_site1_2b5i_normal_mot_HHH_b1_00095_000000042_0001_1_14_H_._HHH_b1_08235_0001_0000200009_0000001_0_af2pred_dldesign_0_af2pred (protein)
chain: SSSSLKEKLNELQRIADRLAELGAEEEFDEVYDLALEFSRTKDESLLERARALLARAEAESSSSS

Experimental findings from paper PMC10163288 are described below.

The other results are listed elsewhere or left out.

This assay deals with il2ra, P01589. Briefly: yeast display titration.
For the molecule B1, the “apparent Kd” value is “inactive: no binding seen”. Under B2 stands “inactive: no binding seen”.

As for B3, the “apparent Kd” value was “inactive: no binding seen”. As to B4, the “apparent Kd” value is “inactive: no binding seen”. Under B5 stands “inactive: no binding seen”; under B6, “inactive: no binding seen”. Under B7 stands “inactive: no binding seen”; under B8, “inactive: no binding seen”; under B9, “inactive: no binding seen”. Under B10 stands “inactive: no binding seen”. For the molecule B11, the “apparent Kd” value is “inactive: no binding seen”. On to B12, for which the “apparent Kd” value was “inactive: no binding seen”. Under B13 stands “inactive: no binding seen”; under B14, “inactive: no binding seen”; under B15, “inactive: no binding seen”.

For B16, the “apparent Kd” value was “inactive: no binding seen”. Under B17 stands “inactive: no binding seen”; under B18, “inactive: no binding seen”; under B19, “inactive: no binding seen”.
